Measured values as given in the supplement of paper PMC12889115.
Some of the results follow. These are raw signals, not scaled to a control.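 In the initial screen, polymyxin B was used at a concentration that permeabilizes Salmonella's outer membrane but not its inner membrane. Maximum growth was set by DMSO wells with or without polymyxin B. Since plates varied, data were ranked per plate, and compounds giving the lowest OD600 advanced as hits.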

System: Salmonella enterica serovar Typhimurium SL1344
Test: bacterial growth OD600 after 18 h with compound and polymyxin B; higher = more bacterial growth (less inhibition)
Conditions: 50 µM, Mueller-Hinton broth

O=C(Cc1cccc(Cl)c1)NC1CC(=O)N(Cc2ccc(F)cc2)C1 (centres undefined)
bacterial growth OD600 (polymyxin B 1 µg/mL): 0.7

CC#CC(=O)N1CCCC(C(=O)Nc2ccc(-c3cccc(OC)c3)cc2)C1 (centres undefined)
bacterial growth OD600 (polymyxin B 1 µg/mL): 0.887

CN1CCCCC1C(=O)N1CCC(C2(c3ccccn3)NC(=O)N(CCc3cccs3)C2=O)CC1 (centres undefined)
bacterial growth OD600 (polymyxin B 0.75 µg/mL): 0.768

CCN(CC)CC(=O)NC1CCCc2nc(N(C)C)ncc21 (centres undefined)
bacterial growth OD600 (polymyxin B 1 µg/mL): 1.1

CN1CCCC(CN(CCc2ccccc2)C(=O)CCN2CCCCC2=O)C1 (centres undefined)
bacterial growth OD600 (polymyxin B 1 µg/mL): 1

COc1ccccc1NC(=O)Nc1ccnn1C1CCN(C(=O)Cc2ccncc2)CC1
bacterial growth OD600 (polymyxin B 0.75 µg/mL): 0.826

COC(=O)[C@]1(C)C[C@H](C(=O)NCCc2cnccn2)[C@H](c2ccccc2C)N1C
bacterial growth OD600 (polymyxin B 0.75 µg/mL): 0.863

CCNC(=O)c1cn(CC(C)C)cc(C(=O)NC2CCCCCC2)c1=O
bacterial growth OD600 (polymyxin B 0.75 µg/mL): 0.984

C=CCC(=O)N1CCCC1C(=O)Nc1ccccc1Oc1cccnc1 (centres undefined)
bacterial growth OD600 (polymyxin B 1 µg/mL): 0.958

CC(C)=CCN1CCOc2ccc(C(C)(O)CN(C)C)cc2C1 (centres undefined)
bacterial growth OD600 (polymyxin B 0.75 µg/mL): 0.788

CCN(Cc1ccccc1)Cc1cnc(S(=O)(=O)CC)n1CCc1ccccc1
bacterial growth OD600 (polymyxin B 1 µg/mL): 0.004

CC(=O)c1ccccc1C(=O)N1CCC(n2nccc2NC(=O)C(C)(C)C)CC1
bacterial growth OD600 (polymyxin B 1 µg/mL): 1.14

COc1ccccc1C(=O)N[C@@H]1c2ccccc2C2(CCN(C(=O)c3cc(C)nn3C)CC2)[C@H]1OC
bacterial growth OD600 (polymyxin B 0.75 µg/mL): 0.875

COCCCN1C(=O)CC(CC(=O)N2CCN(c3ccc(F)cc3)CC2)(c2ccccc2OC)C1=O (centres undefined)
bacterial growth OD600 (polymyxin B 0.75 µg/mL): 0.974

O=C1CCC(CCC(=O)N2CCCC(C(=O)CCc3ccccc3)C2)(Cc2ccc(Cl)cc2)N1 (centres undefined)
bacterial growth OD600 (polymyxin B 0.75 µg/mL): 0.006

COC(=O)c1cccc(C(=O)N2CC(=O)N(c3ccc(OC)cc3)C3(CCCC3)C2)c1
bacterial growth OD600 (polymyxin B 0.75 µg/mL): 0.798

Cc1ccc(C(C)CCN2CCOc3ccc(CN4CCC(O)(c5cccnc5)CC4)cc3C2)o1 (centres undefined)
bacterial growth OD600 (polymyxin B 0.75 µg/mL): 0.942

CCOC(=O)C1(Cc2cccc(OC)c2)CCCN(S(=O)(=O)c2ccccc2)C1 (centres undefined)
bacterial growth OD600 (polymyxin B 1 µg/mL): 0.285

COc1cc(=O)n2c(c1C(=O)NC(C)c1ccco1)CCN(Cc1ccc(C)c(C)c1)CC2 (centres undefined)
bacterial growth OD600 (polymyxin B 0.75 µg/mL): 0.852

CC(Cc1cccs1)NC(=O)c1cccc(OC2CCN(S(C)(=O)=O)CC2)c1 (centres undefined)
bacterial growth OD600 (polymyxin B 1 µg/mL): 1.03

CN(Cc1cc(-c2ccccc2)no1)C(=O)C1CCC(=O)N(C2CCCC2)C1 (centres undefined)
bacterial growth OD600 (polymyxin B 1 µg/mL): 0.878

CCC(COC)NC(=O)C1CCN(c2nc(C)c3cc(C)c(C)cc3n2)CC1 (centres undefined)
bacterial growth OD600 (polymyxin B 0.75 µg/mL): 0.885

CO[C@H]1[C@H](NC(=O)Cc2cccs2)c2ccccc2C12CCN(Cc1cc3ccccc3[nH]1)CC2
bacterial growth OD600 (polymyxin B 0.75 µg/mL): 0.834

CN1CCN(CC2(O)CCCN(CC3CCCCC3)C2=O)CC1 (centres undefined)
bacterial growth OD600 (polymyxin B 1 µg/mL): 0.909

COc1ccc(CC2(CCC(=O)NCC3(c4ccccc4)CC3(C)C)CCC(=O)N2)c(F)c1 (centres undefined)
bacterial growth OD600 (polymyxin B 0.75 µg/mL): 0.584

Cc1ccccc1C1CCN(CCNC2CCN(c3ccc(NC(=O)c4cnccn4)cc3)CC2)C1 (centres undefined)
bacterial growth OD600 (polymyxin B 0.75 µg/mL): 0.726

O=C1CCC(CCC(=O)N2CCC(Sc3ccc(F)cc3)CC2)(Cc2cccs2)N1 (centres undefined)
bacterial growth OD600 (polymyxin B 0.75 µg/mL): 0.769

CCn1cc(CNC(=O)c2ccc(OC3CCN(C(=O)C4CC4)CC3)cc2)cn1
bacterial growth OD600 (polymyxin B 1 µg/mL): 1.14

O=C1CCC(C(=O)N2CCS(=O)(=O)CC2)CN1Cc1cccc(F)c1 (centres undefined)
bacterial growth OD600 (polymyxin B 1 µg/mL): 1.19
